The source of these data is paper PMC7819943, “Rice protein-binding microarrays: a tool to detect cis-acting elements near promoter regions in rice”.

Protein sequences, listed by entry. Tags and fused reporters are not part of them.
UniProt Q0JBA9, entry or part of it: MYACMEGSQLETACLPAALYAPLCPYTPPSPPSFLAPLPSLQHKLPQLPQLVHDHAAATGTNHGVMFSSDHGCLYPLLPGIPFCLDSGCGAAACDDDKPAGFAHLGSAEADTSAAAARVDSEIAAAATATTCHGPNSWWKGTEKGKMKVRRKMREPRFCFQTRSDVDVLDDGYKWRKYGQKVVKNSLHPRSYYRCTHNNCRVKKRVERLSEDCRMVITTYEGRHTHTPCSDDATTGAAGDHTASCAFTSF

The list shows a part of the results.

The experiment addresses OsWRKY34 (Oryza sativa, UniProt Q0JBA9 1-250). The experiment is described as follows: protein-binding microarray (RPBM); PBS, 2% BSA, 51.3 ng/ul salmon testes DNA, 50 uM zinc acetate, 200 nM TF, 25 C, 1 h; high values mean tight binding. The following applies: protein: recombinant; tags: N-terminal polyhistidine and DsRed monomer fusion (pET32a); label: CyDye5-dUTP incorporated in the synthesized complementary strand; 3' TTTTT single-stranded linker to array surface; dsDNA, one strand shown. The method, boiled down:
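Binding signal is defined as the fluorescence intensity of each feature in arbitrary units, read on an Axon 4000B scanner. Transcription factors with N-terminal polyhistidine and DsRed fusions came from E. coli BL21-CodonPlus and were purified on Ni–NTA. They were incubated at 200 nM for 1 h at 25 °C on a custom Agilent array that had been made double-stranded with Cy5-dUTP, with 50 µM zinc acetate present, and the array was washed.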
With “ATTCTTTTCTCAATCAATAACAACTCTCCACCATTTAATTCGGAGTCACCTAGTGCAG”, the binding signal is 8170 fluorescence intensity (a.u.).

As for “CATACTTGGTTTTGATATACTGGGCTTTTCATGGACACTACGGAGTCACCTAGTGCAG”, the binding signal was 8030 fluorescence intensity (a.u.).

Take “AAACGGCGCAATCTGTGTAATTAGTTATTTTTTCGTCTATCGGAGTCACCTAGTGCAG”: the binding signal is 8140 fluorescence intensity (a.u.).

On to “TCATGCATACACATTATGATTAGCACTTTCCATTTTCTATCGGAGTCACCTAGTGCAG”, for which the binding signal was 8160 fluorescence intensity (a.u.).

For “CGTCGTCGTGTACCACGTCCTCCACCGCCGGCTTCCCGCGCGGAGTCACCTAGTGCAG”, the binding signal is 14100 fluorescence intensity (a.u.).

Take “GACGAATGGTCAAACGTTGGATAAAAAGTCAACGGCGTCACGGAGTCACCTAGTGCAG”: the binding signal was 12000 fluorescence intensity (a.u.).

Consider “TACACGAACACGATCAATCACCTGATTCCTTCAACTGTTTCGGAGTCACCTAGTGCAG”, for which the binding signal is 10200 fluorescence intensity (a.u.).

Turning to “GGTATACGTTTGACCATTCGTCTTATTCAAAAAATTTATGCGGAGTCACCTAGTGCAG”, the binding signal was 10200 fluorescence intensity (a.u.).

In the case of “AAAGGACCAGTCGTCTTATTTCTAGCCACTTACCTCCTAACGGAGTCACCTAGTGCAG”, the binding signal is 10500 fluorescence intensity (a.u.).

For “GCACCTCTTGTATCATCAGGTGCACAAGCTGTGCCAAAAACGGAGTCACCTAGTGCAG”, the binding signal was 9420 fluorescence intensity (a.u.).

As for “AGGGTAATAACCCAGCCTGTGTTGTGTGTGTTGGTTTAGACGGAGTCACCTAGTGCAG”, the binding signal was 9660 fluorescence intensity (a.u.).

For “GAATTTCGTTCTGTTTCACCATTCATCTCGAATATTTCCACGGAGTCACCTAGTGCAG”, the binding signal is 12000 fluorescence intensity (a.u.).

As for “GCCGCTTCCGCTTGCGTGCCCTCGTCGCCGTCGAATCGCTCGGAGTCACCTAGTGCAG”, the binding signal is 10000 fluorescence intensity (a.u.).

Turning to “GGGGCTGGGGCACATAACCAACACTGCACAATGAGTCTTGCGGAGTCACCTAGTGCAG”, the binding signal is 9070 fluorescence intensity (a.u.).

For “AAATGGTTTTGGTCTAGGGATCGTGCTTAGCTATTGGTGGCGGAGTCACCTAGTGCAG”, the binding signal was 8080 fluorescence intensity (a.u.).

With “TGTGTGTGTTAACTTAATTCCTGTCAGCAACATTTCCTTTCGGAGTCACCTAGTGCAG”, the binding signal was 8820 fluorescence intensity (a.u.).

On to “CATCCAATTCCTGTGTTTTTCCTGTGGTTCAATCAAACGGCGGAGTCACCTAGTGCAG”, for which the binding signal was 11400 fluorescence intensity (a.u.).

Regarding “CTCCCTCTGTTTCAAAATATTTGACACTGTTGACTTTTTACGGAGTCACCTAGTGCAG”, the binding signal is 11000 fluorescence intensity (a.u.).

With “AGGTCTAGCCGGCATAGCTTTGGATCATATTTATTTCTTACGGAGTCACCTAGTGCAG”, the binding signal was 8050 fluorescence intensity (a.u.).

On to “ACATGTGGAGGGAACAGGGCGTGGAATCAAGGGTCGGGATCGGAGTCACCTAGTGCAG”, for which the binding signal was 8290 fluorescence intensity (a.u.).

With “GGCGCGTTGTAGGCAGGGGTGGCGTTGCGATGCAGTCGGCCGGAGTCACCTAGTGCAG”, the binding signal is 8480 fluorescence intensity (a.u.).

Turning to “TCCCCATCTGCCTCTTTACTCTCCTTCCCACCCCTCTATGCGGAGTCACCTAGTGCAG”, the binding signal is 8720 fluorescence intensity (a.u.).

As to “GTACCCTACTCTTATACTCCTCTATACAAATACAACTACACGGAGTCACCTAGTGCAG”, the binding signal was 8370 fluorescence intensity (a.u.).

On to “AGCTCGTGTTAATTGTTAAAATTTCCTCACCAGTTTGCAACGGAGTCACCTAGTGCAG”, for which the binding signal was 8350 fluorescence intensity (a.u.).

Regarding “CCATCCTCACCGTCGTCGCTGCCGCGCGTCCCTTCCCCTCCGGAGTCACCTAGTGCAG”, the binding signal was 8160 fluorescence intensity (a.u.).

On to “CCAGATTTGCTCCTTCTTTCATTGATCTTTACATCAAATTCGGAGTCACCTAGTGCAG”, for which the binding signal is 9620 fluorescence intensity (a.u.).

For the sequence “CAGATTTTTAGCCACTGGATGAGCTTCATGATTCGTGCTCCGGAGTCACCTAGTGCAG”, the binding signal was 8100 fluorescence intensity (a.u.).

On to “AATAGGGCAAGCACTTTTCATAGTATATATTTATCTTTTTCGGAGTCACCTAGTGCAG”, for which the binding signal is 8110 fluorescence intensity (a.u.).

For the sequence “CCCGTCGTTGTCCACCCCGTCCCATTCCACGACCGTCGTCCGGAGTCACCTAGTGCAG”, the binding signal is 12000 fluorescence intensity (a.u.).

For the sequence “CGATCACTTCACCTAACTCGATCGCTTAATTTCCAGCAACCGGAGTCACCTAGTGCAG”, the binding signal was 8720 fluorescence intensity (a.u.).

“GTGGGAGTGGCGGTGTCGGGTCCGGAACGAAACGGCGGGGCGGAGTCACCTAGTGCAG”: the binding signal was 10300 fluorescence intensity (a.u.).

With “TATTTGCCCTGCTCTCACCCGGCTCCTGATCTCCTCGTCCCGGAGTCACCTAGTGCAG”, the binding signal is 9420 fluorescence intensity (a.u.).

With “GCTCTAACACACCTTCATCATGCATGCATATGTGCTATTTCGGAGTCACCTAGTGCAG”, the binding signal is 8080 fluorescence intensity (a.u.).

Consider “GTTTTTGGGACGGAGGGAGTATTTGTTTGTGTTTGAATTGCGGAGTCACCTAGTGCAG”, for which the binding signal was 9560 fluorescence intensity (a.u.).

Consider “GGAGAGAGAGATTAGGGGTAGGGTAGTAAAAATATATATGCGGAGTCACCTAGTGCAG”, for which the binding signal was 11100 fluorescence intensity (a.u.).

“TCACTGGCCTTTATTTTGTGGCGGCTCCAAATTCCGCCAGCGGAGTCACCTAGTGCAG”: the binding signal is 8580 fluorescence intensity (a.u.).

In the case of “TCTCTTTTACCTCAATCTCGTATATACCCTGGTACCGACGCGGAGTCACCTAGTGCAG”, the binding signal was 11400 fluorescence intensity (a.u.).

Regarding “TCAGCTATCATAGTCTTCTAGAATGCTCTTCTTGTCAGATCGGAGTCACCTAGTGCAG”, the binding signal was 8220 fluorescence intensity (a.u.).

Consider “AAGTTGGGTTTCGGATCTTGGAAGGTTAGGAGATACAGTACGGAGTCACCTAGTGCAG”, for which the binding signal was 9660 fluorescence intensity (a.u.).

As to “CACAGTGCACATATATAAATGCACCCCACTTATTGCTCTCCGGAGTCACCTAGTGCAG”, the binding signal was 8440 fluorescence intensity (a.u.).

As to “ATGAATATGCGAGCCCATAAAGCACCATGTCTTCTTCTCGCGGAGTCACCTAGTGCAG”, the binding signal was 8400 fluorescence intensity (a.u.).

Regarding “AGAACTGGTTTCTTGTAGCTTGATTGTGTTGTTACTCCTGCGGAGTCACCTAGTGCAG”, the binding signal is 8440 fluorescence intensity (a.u.).
